At least one compound was matched to its structure with a doubt left.
System: 4T1 cell tumours
Test: Immunohistochemical staining of proliferation biomarker Ki67 in tumours
Assay type: in vivo, female BALB/cByJ mice
Settings: 4T1 tumours, increasing concentration of Palbociclib 10, 50, 100 mg/kg (FIG. 9b)

CC(=O)c1c(C)c2cnc(Nc3ccc(N4CCNCC4)cn3)nc2n(C2CCCC2)c1=O [Palbociclib]
cell proliferation (biomarker Ki67): a drop in cell proliferation

Reference: patent publication EP4043435A1, “COMPOUND FOR DETECTING SENESCENT CELLS AND USE THEREOF” (Universitat Politècnica de València, priority 2019, dated 2021)
